Some of the results follow.
Target: OsWRKY34 (Oryza sativa, UniProt Q0JBA9 1-250)
Assay: protein-binding microarray (RPBM); PBS, 2% BSA, 51.3 ng/ul salmon testes DNA, 50 uM zinc acetate, 200 nM TF, 25 C, 1 h; high values mean tight binding
Conditions: protein: recombinant; tags: N-terminal polyhistidine and DsRed monomer fusion (pET32a); label: CyDye5-dUTP incorporated in the synthesized complementary strand; 3' TTTTT single-stranded linker to array surface; dsDNA, one strand shown
Outline: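 The binding signal is fluorescence intensity per feature, in arbitrary units, read on an Axon 4000B scanner. Polyhistidine- and DsRed-tagged transcription factors (N-terminal fusions) from E. coli BL21-CodonPlus were purified on Ni–NTA and applied at 200 nM for 1 h at 25 °C to a double-stranded, BSA-blocked custom Agilent array in buffer with 50 µM zinc acetate.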

Protein sequences, listed by entry. Tags and fused reporters are not part of them.
UniProt Q0JBA9, entry or part of it: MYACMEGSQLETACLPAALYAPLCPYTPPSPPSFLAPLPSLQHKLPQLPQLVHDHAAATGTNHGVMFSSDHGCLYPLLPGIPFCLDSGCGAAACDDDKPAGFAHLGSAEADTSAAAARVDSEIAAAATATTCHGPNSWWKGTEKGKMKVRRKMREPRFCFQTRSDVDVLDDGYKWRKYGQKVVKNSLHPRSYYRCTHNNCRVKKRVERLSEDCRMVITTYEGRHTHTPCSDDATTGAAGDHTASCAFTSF

Row | Sequence | binding signal
1 | CCGGACTCCAGCCAATTCTTGCTCTGTTCCCGCGACAATCCGGAGTCACCTAGTGCAG | 8280 fluorescence intensity (a.u.)
2 | ATCCCCTCCATTATGGGCCCTACCCGCGGCATCTCCTCGTCGGAGTCACCTAGTGCAG | 8180 fluorescence intensity (a.u.)
3 | GTGGGATTAGGATTGGAAAATGAATGAAGGGTTAGAATTACGGAGTCACCTAGTGCAG | 8560 fluorescence intensity (a.u.)
4 | GCAGCTAAGTGGCATATCTTCGCCTCGCCGTCCCCACCCACGGAGTCACCTAGTGCAG | 8140 fluorescence intensity (a.u.)
5 | CCCTTTACACTTGCTTATCCAGTCATAGTTGCCTTACCAGCGGAGTCACCTAGTGCAG | 9100 fluorescence intensity (a.u.)
6 | ATTTGGTGTGATGCTTTTTGGAAAAAAATTTGGATACTAACGGAGTCACCTAGTGCAG | 8680 fluorescence intensity (a.u.)
7 | GTCTCAAAGATCTGACTGATTTTCTCCCTGCATCTCTTGCCGGAGTCACCTAGTGCAG | 8570 fluorescence intensity (a.u.)
8 | GCAGCCAAGCTGAGATATCCTCCTGTGTGTTCTCCCGTTCCGGAGTCACCTAGTGCAG | 8780 fluorescence intensity (a.u.)
9 | AAGCCAATTAACACTGCTATTATTTCTGTTATTATATTATCGGAGTCACCTAGTGCAG | 8300 fluorescence intensity (a.u.)
10 | CACACACACATCCACACATATCTTTGGCTTCTCGTCTACACGGAGTCACCTAGTGCAG | 9680 fluorescence intensity (a.u.)
11 | CTCGATACGCATCACATTTCTCACTTATTTGCTTTAGAGGCGGAGTCACCTAGTGCAG | 9630 fluorescence intensity (a.u.)
12 | ATCGTCACCTATATAATCTATATATCCCCAACGTTTGCATCGGAGTCACCTAGTGCAG | 8250 fluorescence intensity (a.u.)
13 | CGAATGGTCAAACATGTAGAAAAAAGTCAACGGTGTCATCCGGAGTCACCTAGTGCAG | 16900 fluorescence intensity (a.u.)
14 | ATTGGTGTTGGTTGGTACGCTGGTTGGTGACCATGCAGTTCGGAGTCACCTAGTGCAG | 8320 fluorescence intensity (a.u.)
15 | GCCACCATTTTTTTCTTTTGCAATTTTTTTCCATCGTTATCGGAGTCACCTAGTGCAG | 14300 fluorescence intensity (a.u.)
16 | CGCCCATCGCCGCCACCGACCACTCCAACGCCGCCGCCGCCGGAGTCACCTAGTGCAG | 9180 fluorescence intensity (a.u.)
17 | AAGAGCACACACACCACGTTTCCTCCACCAATAAATTCCACGGAGTCACCTAGTGCAG | 9340 fluorescence intensity (a.u.)
18 | TATGGTTTCCTCAAGGGTATTTTGGGCATTATGAATTTTACGGAGTCACCTAGTGCAG | 10500 fluorescence intensity (a.u.)
19 | ACTAGATTGCTGCTTCAACATCACTCATGTTTGCTCTTCGCGGAGTCACCTAGTGCAG | 8740 fluorescence intensity (a.u.)
20 | GCCTTTGCCTTTGGCACCCGGCGCGCGTCCCGTCTCCCACCGGAGTCACCTAGTGCAG | 8860 fluorescence intensity (a.u.)
21 | ATCCACGGTCACACACACTGGCTGGCACCGTCGCAGGCACCGGAGTCACCTAGTGCAG | 8300 fluorescence intensity (a.u.)

Single entries from the entries so far:
Entry for GCAGCTAAGTGGCATATCTTCGCCTCGCCGTCCCCACCCACGGAGTCACCTAGTGCAG under binding signal: 8140 fluorescence intensity (a.u.)
Entry for ATTTGGTGTGATGCTTTTTGGAAAAAAATTTGGATACTAACGGAGTCACCTAGTGCAG under binding signal: 8680 fluorescence intensity (a.u.)
Entry for GCAGCCAAGCTGAGATATCCTCCTGTGTGTTCTCCCGTTCCGGAGTCACCTAGTGCAG under binding signal: 8780 fluorescence intensity (a.u.)

Going on with the list:

Row | Sequence | binding signal
22 | CCGTCTGCCGGTGCCCTTCTAGCCGAGCTCTCACCGGCCGCGGAGTCACCTAGTGCAG | 9600 fluorescence intensity (a.u.)
23 | CATCATCATGTAGTTTTTTTTTACATCATCTAAAGGTTTTCGGAGTCACCTAGTGCAG | 10500 fluorescence intensity (a.u.)
24 | AGACGTATTCCTGTATCCGCCTATCCGTATCTTGGTATCACGGAGTCACCTAGTGCAG | 8300 fluorescence intensity (a.u.)
25 | TCATCTTTTTATTGCTACTGGATTGCATATATTTCTTTACCGGAGTCACCTAGTGCAG | 9550 fluorescence intensity (a.u.)
26 | TATTAAGTCAACGGTTCATTTTGTTCAGTAATAATCATGGCGGAGTCACCTAGTGCAG | 10100 fluorescence intensity (a.u.)
27 | TCTCTACTAAACCTTGCGTTACAACTTACAACTTGTCCTCCGGAGTCACCTAGTGCAG | 9300 fluorescence intensity (a.u.)
28 | CTGTGAACCATTGATTTTTTTTACTATGAATTTTTTTGTTCGGAGTCACCTAGTGCAG | 8040 fluorescence intensity (a.u.)
29 | CCGTCTCCTCGCGAGTTCGATCGCCCACCGCCTGAGCCGACGGAGTCACCTAGTGCAG | 8480 fluorescence intensity (a.u.)
30 | GTCGTCGCCCAGTGCAATCTCGCAACCAATTTTCCACCGCCGGAGTCACCTAGTGCAG | 9400 fluorescence intensity (a.u.)
31 | CGCATTCTCCACGACTCCACTAGGCACACTTTTTTTTCTCCGGAGTCACCTAGTGCAG | 10900 fluorescence intensity (a.u.)
32 | TGGATGTTTGGTGATGCACTAGGGTTTGATGGGAGATGGACGGAGTCACCTAGTGCAG | 10600 fluorescence intensity (a.u.)
33 | TCACCTGCCTCCCGCCGTCGAGATCACCCACGCCTGCTGTCGGAGTCACCTAGTGCAG | 8140 fluorescence intensity (a.u.)
34 | AATCTATATTGTTTTTACATTTTCCATGTGGTTCGCATTCCGGAGTCACCTAGTGCAG | 10100 fluorescence intensity (a.u.)
35 | ATGGGTCCCATTGCTCCTTTCCTGTTCCGTGCTTTGAGATCGGAGTCACCTAGTGCAG | 8250 fluorescence intensity (a.u.)
36 | GTACCATTAAAAAGTTTTTCGTGCCATCTGACATTCGCCGCGGAGTCACCTAGTGCAG | 8430 fluorescence intensity (a.u.)
37 | TACCCATATACTATAGCATCAAATCATTGACCAGCATTTACGGAGTCACCTAGTGCAG | 8430 fluorescence intensity (a.u.)
38 | CTCTCACCTCACAAAAGTGCCCACGAAGAAGTGGTCAAAGCGGAGTCACCTAGTGCAG | 8250 fluorescence intensity (a.u.)
39 | CTTCTAGAAGTTTCCGGGCGGGCGCGCTGCCCTCCAACGACGGAGTCACCTAGTGCAG | 8260 fluorescence intensity (a.u.)
40 | GCCTAGAAGTATCGGCGACTTGTTTTTTTTGTTTGTTTTTCGGAGTCACCTAGTGCAG | 12800 fluorescence intensity (a.u.)
41 | AGGGGCCCACCCACCCAAAGTTGACCGCGATGTTACGATGCGGAGTCACCTAGTGCAG | 8800 fluorescence intensity (a.u.)
42 | TGTCATTTTCTCGTCGGCTTGCTTTGTTTGATTCCAGAGTCGGAGTCACCTAGTGCAG | 9240 fluorescence intensity (a.u.)

From publication PMC7819943, “Rice protein-binding microarrays: a tool to detect cis-acting elements near promoter regions in rice”
